# Source: the supplement of paper PMC8728848
# Some of the results follow.
# Experiments:
# Experiment in all cases: glycan array binding signal (z-score within array); higher = stronger binding
# Conditions in all cases: glycan notation: IUPAC condensed, linker removed
# [1] = biological target: Neu5Ac(a2-3)GalNAc(b1-4)GlcNAc
# In short: (§1)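 The binding signal is a Z-score computed within each array. Data were drawn from 3228 arrays in the Consortium for Functional Glycomics database, restricted to those with a known protein sequence. Scores were averaged over arrays of the same protein sequence at different concentrations or buffers, and over linkers, and negative values can be taken as non-binding.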
# [2] = biological target: Neu5Ac(a2-3)[GalNAc(b1-4)]Gal(b1-4)Glc
# In short: as §1
# [3] = biological target: Neu5Ac(a2-3)[GalNAc(b1-4)]Gal(b1-4)GlcNAc
# In short: as §1
# [4] = biological target: Neu5Ac(a2-3)[GalNAc(b1-4)]Gal(b1-4)GlcNAc(b1-3)GalNAc
# In short: as §1
# [5] = biological target: Neu5Ac(a2-3)[Neu5Ac(a2-6)]GalNAc
# In short: as §1
# Neu5Ac(a2-6)Gal = biological target: Neu5Ac(a2-6)Gal
# In short: as §1
# [6] = biological target: Neu5Ac(a2-6)Gal(b1-3)GlcNAc(b1-3)[Gal(b1-4)GlcNAc(b1-6)]Gal(b1-4)Glc
# In short: as §1
# Neu5Ac(a2-6)Gal(b1-4)Glc = biological target: Neu5Ac(a2-6)Gal(b1-4)Glc
# In short: as §1
# [7] = biological target: Neu5Ac(a2-6)Gal(b1-4)GlcNAc
# In short: as §1
# [8] = biological target: Neu5Ac(a2-6)Gal(b1-4)GlcNAc(b1-2)Man
# In short: as §1
# [9] = biological target: Neu5Ac(a2-6)Gal(b1-4)GlcNAc(b1-2)Man(a1-3)Man(b1-4)GlcNAc(b1-4)GlcNAc
# In short: as §1
# [10] = biological target: Neu5Ac(a2-6)Gal(b1-4)GlcNAc(b1-2)Man(a1-3)[Gal(b1-4)GlcNAc(b1-2)Man(a1-6)]Man(b1-4)GlcNAc(b1-4)GlcNAc
# In short: as §1
# [11] = biological target: Neu5Ac(a2-6)Gal(b1-4)GlcNAc(b1-2)Man(a1-3)[GlcNAc(b1-2)Man(a1-6)]Man(b1-4)GlcNAc(b1-4)GlcNAc
# In short: as §1
# [12] = biological target: Neu5Ac(a2-6)Gal(b1-4)GlcNAc(b1-2)Man(a1-3)[GlcNAc(b1-4)][Neu5Ac(a2-6)Gal(b1-4)GlcNAc(b1-2)Man(a1-6)]Man(b1-4)GlcNAc(b1-4)GlcNAc
# In short: as §1
# [13] = biological target: Neu5Ac(a2-6)Gal(b1-4)GlcNAc(b1-2)Man(a1-3)[Man(a1-6)]Man(b1-4)GlcNAc(b1-4)GlcNAc
# In short: as §1
# [14] = biological target: Neu5Ac(a2-6)Gal(b1-4)GlcNAc(b1-2)Man(a1-3)[Neu5Ac(a2-3)Gal(b1-4)GlcNAc(b1-2)Man(a1-6)]Man(b1-4)GlcNAc(b1-4)GlcNAc
# In short: as §1
# [15] = biological target: Neu5Ac(a2-6)Gal(b1-4)GlcNAc(b1-2)Man(a1-3)[Neu5Ac(a2-6)Gal(b1-4)GlcNAc(b1-2)Man(a1-6)]Man(b1-4)GlcNAc(b1-4)GlcNAc
# In short: as §1
# [16] = biological target: Neu5Ac(a2-6)Gal(b1-4)GlcNAc(b1-2)Man(a1-3)[Neu5Ac(a2-6)Gal(b1-4)GlcNAc(b1-2)Man(a1-6)]Man(b1-4)GlcNAc(b1-4)[Fuc(a1-6)]GlcNAc
# In short: as §1
# [17] = biological target: Neu5Ac(a2-6)Gal(b1-4)GlcNAc(b1-2)Man(a1-6)Man(b1-4)GlcNAc(b1-4)GlcNAc
# In short: as §1
# [18] = biological target: Neu5Ac(a2-6)Gal(b1-4)GlcNAc(b1-2)Man(a1-6)[Gal(b1-4)GlcNAc(b1-2)Man(a1-3)]Man(b1-4)GlcNAc(b1-4)GlcNAc
# In short: as §1
# [19] = biological target: Neu5Ac(a2-6)Gal(b1-4)GlcNAc(b1-2)Man(a1-6)[GlcNAc(b1-2)Man(a1-3)]Man(b1-4)GlcNAc(b1-4)GlcNAc
# In short: as §1
# [20] = biological target: Neu5Ac(a2-6)Gal(b1-4)GlcNAc(b1-2)Man(a1-6)[Man(a1-3)]Man(b1-4)GlcNAc(b1-4)GlcNAc
# In short: as §1
# [21] = biological target: Neu5Ac(a2-6)Gal(b1-4)GlcNAc(b1-2)[Neu5Ac(a2-6)Gal(b1-4)GlcNAc(b1-4)]Man(a1-3)[GlcNAc(b1-4)][Neu5Ac(a2-6)Gal(b1-4)GlcNAc(b1-2)[Neu5Ac(a2-6)Gal(b1-4)GlcNAc(b1-6)]Man(a1-6)]Man(b1-4)GlcNAc(b1-4)GlcNAc
# In short: as §1
# [22] = biological target: Neu5Ac(a2-6)Gal(b1-4)GlcNAc(b1-2)[Neu5Ac(a2-6)Gal(b1-4)GlcNAc(b1-4)]Man(a1-3)[GlcNAc(b1-4)][Neu5Ac(a2-6)Gal(b1-4)GlcNAc(b1-4)Man(a1-6)]Man(b1-4)GlcNAc(b1-4)GlcNAc
# In short: as §1
# [23] = biological target: Neu5Ac(a2-6)Gal(b1-4)GlcNAc(b1-2)[Neu5Ac(a2-6)Gal(b1-4)GlcNAc(b1-6)]Man(a1-6)[Neu5Ac(a2-6)Gal(b1-4)GlcNAc(b1-2)Man(a1-3)][GlcNAc(b1-4)]Man(b1-4)GlcNAc(b1-4)GlcNAc
# In short: as §1
# [24] = biological target: Neu5Ac(a2-6)Gal(b1-4)GlcNAc(b1-3)Gal(b1-3)GlcNAc
# In short: as §1
# [25] = biological target: Neu5Ac(a2-6)Gal(b1-4)GlcNAc(b1-3)Gal(b1-4)GlcNAc
# In short: as §1
# [26] = biological target: Neu5Ac(a2-6)Gal(b1-4)GlcNAc(b1-3)Gal(b1-4)GlcNAc(b1-2)Man(a1-3)[Neu5Ac(a2-6)Gal(b1-4)GlcNAc(b1-3)Gal(b1-4)GlcNAc(b1-2)Man(a1-6)]GalNAc
# In short: as §1
# [27] = biological target: Neu5Ac(a2-6)Gal(b1-4)GlcNAc(b1-3)Gal(b1-4)GlcNAc(b1-3)Gal(b1-4)GlcNAc
# In short: as §1
# [28] = biological target: Neu5Ac(a2-6)Gal(b1-4)GlcNAc(b1-3)Gal(b1-4)GlcNAc(b1-3)Gal(b1-4)GlcNAc(b1-2)Man(a1-3)[Neu5Ac(a2-6)Gal(b1-4)GlcNAc(b1-3)Gal(b1-4)GlcNAc(b1-3)Gal(b1-4)GlcNAc(b1-2)Man(a1-6)]GalNAc
# In short: as §1
# [29] = biological target: Neu5Ac(a2-6)Gal(b1-4)GlcNAc(b1-3)Gal(b1-4)GlcNAc(b1-3)GalNAc
# In short: as §1
# [30] = biological target: Neu5Ac(a2-6)Gal(b1-4)GlcNAc(b1-3)Gal(b1-4)GlcNAc(b1-3)[Neu5Ac(a2-6)Gal(b1-4)GlcNAc(b1-3)Gal(b1-4)GlcNAc(b1-6)]GalNAc
# In short: as §1
# [31] = biological target: Neu5Ac(a2-6)Gal(b1-4)GlcNAc(b1-3)Gal(b1-4)GlcNAc(b1-6)[Gal(b1-3)]GalNAc
# In short: as §1
# [32] = biological target: Neu5Ac(a2-6)Gal(b1-4)GlcNAc(b1-3)Gal(b1-4)[Fuc(a1-3)]GlcNAc(b1-3)Gal(b1-4)[Fuc(a1-3)]GlcNAc
# In short: as §1
# [33] = biological target: Neu5Ac(a2-6)Gal(b1-4)GlcNAc(b1-3)GalNAc
# In short: as §1
# [34] = biological target: Neu5Ac(a2-6)Gal(b1-4)GlcNAc(b1-3)[Neu5Ac(a2-6)Gal(b1-4)GlcNAc(b1-6)]GalNAc
# In short: as §1
# [35] = biological target: Neu5Ac(a2-6)Gal(b1-4)GlcNAc(b1-6)GalNAc
# In short: as §1
binder,measurement,setting,value
Pbx2CASH domain (Cryptococcus neoformans) (protein) GIPGPNRLYRLSGPIIFTAADQEIATYGYPTGSERAVLRVEGRNTATAIQGDCRRCARVSVKNLVVDGNRKKLGRMRDFQLATGLVVLGGNEGQSIQNSWIKNPRGFTAIHIREGDKLQCSGARVEKNEIGPVGEEYDPEKDGDDPEMSPLGRPLADGVSIACRDSFIRDNTFRDNTDAAIVVYCSPGTLIHA,glycan array binding signal (z-score),[1],-0.652
same,glycan array binding signal (z-score),[2],-0.95
same,glycan array binding signal (z-score),[3],-0.697
same,glycan array binding signal (z-score),[4],0.539
same,glycan array binding signal (z-score),[5],-0.566
same,glycan array binding signal (z-score),Neu5Ac(a2-6)Gal,-0.221
same,glycan array binding signal (z-score),[6],-0.432
same,glycan array binding signal (z-score),Neu5Ac(a2-6)Gal(b1-4)Glc,-0.289
same,glycan array binding signal (z-score),[7],-0.326
same,glycan array binding signal (z-score),[8],-0.377
same,glycan array binding signal (z-score),[9],0.2
same,glycan array binding signal (z-score),[10],-0.26
same,glycan array binding signal (z-score),[11],0.584
same,glycan array binding signal (z-score),[12],0.933
same,glycan array binding signal (z-score),[13],0.568
same,glycan array binding signal (z-score),[14],-0.593
same,glycan array binding signal (z-score),[15],-0.301
same,glycan array binding signal (z-score),[16],-0.266
same,glycan array binding signal (z-score),[17],1.6
same,glycan array binding signal (z-score),[18],0.273
same,glycan array binding signal (z-score),[19],-0.378
same,glycan array binding signal (z-score),[20],2.48
same,glycan array binding signal (z-score),[21],0.209
same,glycan array binding signal (z-score),[22],0.435
same,glycan array binding signal (z-score),[23],1.59
same,glycan array binding signal (z-score),[24],-0.059
same,glycan array binding signal (z-score),[25],-0.419
same,glycan array binding signal (z-score),[26],0.75
same,glycan array binding signal (z-score),[27],-0.618
same,glycan array binding signal (z-score),[28],4.62
same,glycan array binding signal (z-score),[29],0.35
same,glycan array binding signal (z-score),[30],0.226
same,glycan array binding signal (z-score),[31],1.68
same,glycan array binding signal (z-score),[32],-0.252
same,glycan array binding signal (z-score),[33],-0.102
same,glycan array binding signal (z-score),[34],0.544
same,glycan array binding signal (z-score),[35],1.05

# Already shown: an excerpt of the list.
binder,measurement,setting,value
Pbx2CASH domain (Cryptococcus neoformans) (protein) GIPGPNRLYRLSGPIIFTAADQEIATYGYPTGSERAVLRVEGRNTATAIQGDCRRCARVSVKNLVVDGNRKKLGRMRDFQLATGLVVLGGNEGQSIQNSWIKNPRGFTAIHIREGDKLQCSGARVEKNEIGPVGEEYDPEKDGDDPEMSPLGRPLADGVSIACRDSFIRDNTFRDNTDAAIVVYCSPGTLIHA,glycan array binding signal (z-score),[12],0.933
same,glycan array binding signal (z-score),[13],0.568
